Reference: PubChem BioAssay AID504467 (National Center for Advancing Translational Sciences (NCATS), 2011)
Hit rate of the full screen: of about 330,000 compounds, about 7,700 (2.3%) were called active. The shares of active, inactive and inconclusive entries below differ from those in the screen. The call rests on the fitted dose curve; in most records, active means well fitted inhibition curve with a large enough effect; inconclusive means small, poorly fitted or top-dose-only effect, or effect the other way; inactive means flat fitted curve, though single readings scatter. A potency beside an inconclusive call is a rough fit, not a confirmed value.

Assay: qHTS screen for small molecules that inhibit ELG1-dependent DNA repair in human embryonic kidney (HEK293T) cells expressing luciferase-tagged ELG1; further: nearly all actives have a fitted effect of over 55% in size
Conditions: HEK293T ELG1-luciferase reporter, luminescence, 16 h, DNA damage induced by 5-fluorouridine; activity change, negative = inhibition: at 46.1 µM (top of the series)
How it was run: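 DMSO vehicle served as the neutral condition. Each well held 2,000 cells given 5-fluorouridine plus compound; after 16 hr at 37 °C/5% CO2, ONE-Glo was added and luciferase measured 30 min later.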
On the % scale 0 is the no-effect control and ±100 the full control effect; potency means the concentration at half of the fitted maximal effect.

Row | SMILES | Potency | activity change, negative = inhibition
1 | CCOc1ncccc1C(=O)Nc1ccc2c(c1)OCCO2 | inconclusive: 14.6 µM [activator, partial curve] | –
2 | Cc1cc(C)c(NC(=O)COC(=O)CCn2c(C)csc2=O)c(C)c1 | – | inactive: 11.6%
3 | CN(C)c1cccc(C(=O)OCC(=O)Nc2nccs2)c1 | inconclusive: 20.6 µM [activator, partial curve] | –
4 | N#CC1=C(N)OC2=C(CC/C2=C\c2ccccc2Cl)C1c1ccccc1Cl (stereo not drawn) | inconclusive: 18.4 µM [inhibitor, partial curve] | –
5 | Cc1ccc(OCC(=O)NC(C)c2ccc(Cl)c(Cl)c2)c([N+](=O)[O-])n1 (stereo not drawn) | – | inactive: 5.09%
6 | CN(C)C(=S)Nc1ccc(S(=O)(=O)N2CCCCC2)cc1 | inconclusive: 23.1 µM [inhibitor, single point] | –
7 | COc1ccc(/C=C/CN2CCC(n3nccc3NC(=O)C3CCCC3)CC2)cc1 | – | inactive: 10.7%
8 | Cc1[nH]c2ccccc2c1/C=N/NC(=S)NCc1ccccc1 | – | inactive: -7.13%
9 | COc1cccc(-c2nc(CS(=O)(=O)CC(=O)N3CCc4ccccc43)c(C)o2)c1 | inconclusive: 25.9 µM [inhibitor, partial curve, poor fit] | –
10 | O=C(O)c1cc2ccc3cccc4ccc(c1)c2c34 | – | inactive: 12.6%
11 | O=C(CN1CCCCCC1)Nc1ccccc1C(=O)Nc1ccccc1 | inconclusive: 20.6 µM [inhibitor, single point] | –
12 | CCOc1ccc2nc(NC(=O)Nc3cccs3)sc2c1 | inconclusive: 2.31 µM [activator, full curve] | –
13 | CS(=O)(=O)Nc1ccc(C(=O)Nc2ccc(S(=O)(=O)N3CCCCC3)cc2)cc1 | inconclusive: 4.11 µM [inhibitor, full curve] | –
14 | O=C(NC(=S)Nc1ccc(N2CCN(C(=O)c3ccccc3)CC2)cc1)c1cccs1 | active: 13 µM | –
15 | CCN(CC)S(=O)(=O)c1ccc(C(=O)OCC(=O)Nc2sc3c(c2C#N)CCCCC3)cc1 | inconclusive: 18.4 µM [activator, partial curve] | –
16 | N/C(Cc1cccs1)=N\OC(=O)COc1ccccc1Cl | inconclusive: 14.6 µM [activator, partial curve] | –
17 | O=C(O)c1ccc(N2CC3CC(C2)c2cccc(=O)n2C3)c(NC(=S)Nc2ccc(Cl)cc2Cl)c1 (stereo not drawn) | – | inconclusive: 35.4% [activator]
18 | Cc1cc(/C=C2\SC(=S)NC2=O)c(C)n1-c1ccccc1 | inconclusive: 2.31 µM [activator, full curve] | –
19 | N/C(=N\N=C\c1ccc(O)c(O)c1)c1nonc1N | inconclusive: 20.6 µM [activator, partial curve] | –
20 | Nc1[nH]c(N=NC(=O)c2ccccc2O)c2ccccc12 | inconclusive: 10.3 µM [activator, partial curve] | –
21 | O=C(Nc1ccncc1)c1ccccc1F | active: 10.3 µM | –
22 | CN(C)c1ccc(C(=O)Nc2nc3c(s2)CCCC3)cc1 | inconclusive: 0.146 µM [activator, partial curve] | –
23 | CCC(C(=O)NCCCN1CCN(C)CC1)n1nc(C)n2c(cc3occc32)c1=O (stereo not drawn) | – | inactive: 25.2%
24 | COc1ccc2[nH]c(=O)c3c(c2c1)OC(C)(C)C=C3 | inconclusive: 2.06 µM [inhibitor, partial curve, poor fit] | –
25 | COc1ccccc1NC(=S)N1CCOCC1 | – | inactive: -7.15%

Row | SMILES | Potency | activity change, negative = inhibition
26 | O=C(Cc1nc2ccccc2[nH]1)N/N=C/c1ccccc1 | inconclusive: 14.6 µM [activator, partial curve] | –
27 | CCCCCNC(=O)c1cccc(S(=O)(=O)N2CC3(C)CC2CC(C)(C)C3)c1 (stereo not drawn) | inconclusive: 2.59 µM [inhibitor, partial curve] | –
28 | Cc1nnsc1C(=O)N/N=C/c1c(F)cccc1Cl | – | inactive: -3.47%
29 | CCN(CC)CCNC(=O)c1ccc(NC(=O)c2ccc(F)cc2F)cc1 | inconclusive: 16.4 µM [activator, single point] | –
30 | Cc1nn(-c2ccccc2)c(C)c1C(=O)NCc1ccc(S(N)(=O)=O)cc1 | – | inactive: 8.13%
31 | CC(C)CCn1c(CN2CC(C)OC(C)C2)nc2c1c(=O)n(C)c(=O)n2C (stereo not drawn) | inconclusive: 16.4 µM [inhibitor, single point] | –
32 | O=C(NCc1ccccc1)c1cc(-c2ccco2)on1 | inconclusive: 6.51 µM [activator, single point] | –
33 | O=C(C1CC(=O)N(C2CCCC2)C1)N1CCN(c2cccc(Cl)c2)CC1 (stereo not drawn) | – | inactive: 9.34%
34 | O=C(NCCS(=O)(=O)NCc1ccccn1)c1ccccc1 | inconclusive: 4.11 µM [activator, single point] | –
35 | CCOc1ccc(NC(=O)CN2CCN(CC(=O)Nc3ccc(OC)cc3OC)CC2)cc1 | inconclusive: 25.9 µM [inhibitor, single point] | –
36 | CC(OC(=O)c1ccco1)C(=O)Nc1nc(-c2ccccc2)cs1 (stereo not drawn) | inconclusive: 14.6 µM [activator, partial curve] | –
37 | Cc1ccc(NC(=O)c2cc(-c3ccco3)on2)cc1C | inconclusive: 20.6 µM [activator, partial curve] | –
38 | CC12CCC(=O)N1C(C(=O)N1CCN(c3ccc(C(F)(F)F)cc3[N+](=O)[O-])CC1)CS2 (stereo not drawn) | inconclusive: 16.4 µM [inhibitor, single point] | –
39 | Cc1ccc(Nc2cc(C)nc(-c3ccccc3O)n2)cc1 | inconclusive: 16.4 µM [activator, partial curve] | –
40 | Cn1nc(-c2ccccc2)c(CO)c1Oc1cccc(C(F)(F)F)c1 | inconclusive: 20.6 µM [inhibitor, single point] | –
41 | COC(=O)c1c(NC(=O)C2SC(=NC3CCCCC3)C(C(N)=O)=C2N)sc2c1CCCC2 (stereo not drawn) | – | inactive: -3.92%
42 | Cc1ccc(C(=O)N/C(=C\c2ccc(F)cc2)C(=O)NCCCn2ccnc2)cc1 | – | inactive: 3.49%
43 | COc1cccc(NC(=O)CN(C)C(=O)c2cn(-c3ccccc3)nc2-c2cccs2)c1 | inconclusive: 23.1 µM [inhibitor, single point] | –
44 | CC(C)(C)c1ccc2c(c1)C(=O)c1ccccc1C2=O | inconclusive: 1.84 µM [activator, full curve] | –
45 | Cc1csc(NC(=O)Nc2cccc(Cl)c2)n1 | inconclusive: 5.17 µM [activator, full curve] | –
46 | CN(C)c1ccc(C(CN)c2c[nH]c3ccccc23)cc1 (stereo not drawn) | – | inactive: 6.48%
47 | CCCN1CCN(CCCNC(=O)CN2C(=O)c3cccnc3Oc3ccc(Cl)cc32)CC1 | inconclusive: 5.8 µM [activator, full curve] | –
48 | COc1ccc(-c2ccc(SCC(=O)NCc3ccc4c(c3)OCO4)nn2)cc1OC | inconclusive: 18.3 µM [inhibitor, single point] | –
49 | CC(C)(C)c1ccc(C(=O)Cn2nc(C(=O)O)c3ccccc3c2=O)cc1 | – | inactive: -6.46%
50 | O=C1c2ccccc2-c2nc3ccccc3n21 | inconclusive: 16.4 µM [activator, single point] | –

Given with each value named: 3 of the compounds above.
COc1ccc2[nH]c(=O)c3c(c2c1)OC(C)(C)C=C3
  Potency: inconclusive: 2.06 µM [inhibitor, partial curve, poor fit]
COc1ccccc1NC(=S)N1CCOCC1
  activity change, negative = inhibition: inactive: -7.15%
O=C(Cc1nc2ccccc2[nH]1)N/N=C/c1ccccc1
  Potency: inconclusive: 14.6 µM [activator, partial curve]

(further entries)

Row | SMILES | Potency | activity change, negative = inhibition
51 | CC(C)Cc1nc2sc3c(SCC(N)=O)ncnc3c2c2c1CCC2 | – | inactive: 21.7%
52 | O=[N+]([O-])c1cc(/C=N/O)ccc1N1CCCC1 | – | inactive: -21.4%
53 | CCOC(=O)c1ccccc1NC(=O)Cn1cnc2c1c(=O)n(C)c(=O)n2C | inconclusive: 29.1 µM [inhibitor, single point] | –
54 | CC(=O)Nc1ccc(NC(=O)C(C)OC(=O)C2CCCC2)cc1 (stereo not drawn) | – | inactive: 6.94%
55 | CC(=O)C1=C(C)OC(N)=C(C#N)C1c1cc2cccc(C)c2nc1Cl (stereo not drawn) | – | inactive: 1.02%
56 | CCN1C(=O)C2(C(C(=O)c3cc4ccccc4o3)=C(O)C(=O)N2CCCN(C)C)c2ccccc21 (stereo not drawn) | – | inactive: -4.33%
57 | Nc1nc(CSc2nnnn2-c2ccccc2)nc(N2CCCc3ccccc32)n1 | active: 16.4 µM | –
58 | Cc1cccc(Nc2nc(N)c([N+](=O)[O-])c(N3CCN(C)CC3)n2)c1 | inconclusive: 32.6 µM [inhibitor, single point] | –
59 | COc1ccc(CNC(=O)c2ccc(Br)cc2)cc1 | – | inactive: 0%
60 | COc1ccc(C(=O)Nc2nc3ccccc3s2)cc1OC | inconclusive: 29.1 µM [inhibitor, single point] | –
61 | Cc1cc(C(F)(F)F)nc(SCc2ccc(C(=O)O)o2)n1 | inconclusive: 11.2 µM [activator, partial curve] | –
62 | O=C(COc1ccccc1F)Nc1ccc2c(c1)OCCO2 | inconclusive: 10.3 µM [activator, partial curve] | –
63 | COC(=O)C1=C(C)NC(=O)/C1=C\c1cc(C)n(-c2cccc(C)c2)c1C | inconclusive: 29.1 µM [inhibitor, single point] | –
64 | CN1C(=O)C(C(=O)Nc2ccccc2F)c2ccccc21 (stereo not drawn) | – | inactive: 9.35%
65 | C[C@H]1COC(=O)[C@@H](Cc2ccc(F)cc2)CC/C=C\C[C@H](CC(=O)NCCO)C(=O)N1 | inconclusive: 6.51 µM [activator, full curve, poor fit] | –
66 | O=C(CCC(=O)N1CCOc2ccccc21)N1CCCCC1 | – | inactive: 8.67%
67 | COc1ccc(NC(=O)c2cc(S(=O)(=O)N3CCc4ccccc43)cn2C)cc1 | – | inactive: -23.3%
68 | COc1ccc(C(=O)C2CCCN(Cc3cnc(N4CCOCC4)s3)C2)c(OC)c1 (stereo not drawn) | inconclusive: 11.6 µM [inhibitor, partial curve, poor fit] | –
69 | O=C(CSc1nnc(SCc2ccccc2)s1)N/N=C/C=C/c1ccccc1[N+](=O)[O-] | – | inactive: 4.28%
70 | Cc1cccc(CSC(Nc2ccc(F)cc2)=C(C#N)C#N)c1 | inconclusive: 2.59 µM [inhibitor, partial curve, poor fit] | –
71 | CCn1c(C(=O)N2CCC(C(=O)NCc3ccc(OC)cc3)CC2)cc2sccc21 | – | inactive: -19.4%
72 | O=C(Nc1ccc(S(=O)(=O)Nc2cnc3ccccc3n2)cc1)c1cccc(OC(F)F)c1 | – | inactive: -1.87%
73 | O=C(NCc1ccco1)c1cc(-c2ccccc2)on1 | inconclusive: 18.4 µM [activator, single point] | –
